{"source": "PubChem BioAssay AID1259405 (NCATS, 2018)", "screen": "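Silenced genes that increase secreted GFP made by CHO cells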 (primary screen)", "cell system": "Chinese hamster CHO-K1 ovary cells with stable secreted eGFP expression", "knock-down reagent": "single siRNA against mouse genes, 0.8 pmol siRNA per well (2 µl of 400 nM stock)", "time to read-out": "3 days", "measured": "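Percent of the per-plate non-targeting control median for intracellular GFP per well by laser scanning cytometry and for cell viability by ATP luminescence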", "reading the numbers": "GFP, % of control: higher = more GFP per well, higher productivity; viability (ATP), % of control: higher = more viable cells (more ATP)", "call rule": "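a knock-down is called active if GFP reaches 120% or more of non-targeting control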", "note": "The whole screen tested about 50,000 reagents; this is an unselected part. About 4,000 of all reagents (8%) count as active. 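Mouse siRNA library applied to hamster cells; one well for each siRNA.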 The numbers tell different reagents against one gene apart. No sequences are given here."}
{"gene":"Ca2","reagent no.":1,"GFP, % of control":106,"viability (ATP), % of control":113,"call":"inactive"}
{"gene":"Ca2","reagent no.":2,"GFP, % of control":65.3,"viability (ATP), % of control":72.4,"call":"inactive"}
{"gene":"Mex3d","reagent no.":1,"GFP, % of control":57.2,"viability (ATP), % of control":27.3,"call":"inactive"}
{"gene":"Mex3d","reagent no.":2,"GFP, % of control":50.9,"viability (ATP), % of control":52.5,"call":"inactive"}
{"gene":"Mex3d","reagent no.":3,"GFP, % of control":95,"viability (ATP), % of control":94.6,"call":"inactive"}
{"gene":"Nfya","reagent no.":1,"GFP, % of control":54.9,"viability (ATP), % of control":84.8,"call":"inactive"}
{"gene":"Nfya","reagent no.":2,"GFP, % of control":69.8,"viability (ATP), % of control":64.5,"call":"inactive"}
{"gene":"Nfya","reagent no.":3,"GFP, % of control":74.7,"viability (ATP), % of control":111,"call":"inactive"}
{"gene":"Diablo","reagent no.":1,"GFP, % of control":72.9,"viability (ATP), % of control":76.7,"call":"inactive"}
{"gene":"Diablo","reagent no.":2,"GFP, % of control":116,"viability (ATP), % of control":96.7,"call":"inactive"}
{"gene":"Tmigd1","reagent no.":1,"GFP, % of control":71.9,"viability (ATP), % of control":100,"call":"inactive"}
{"gene":"Tmigd1","reagent no.":2,"GFP, % of control":72.3,"viability (ATP), % of control":82.1,"call":"inactive"}
{"gene":"Tmigd1","reagent no.":3,"GFP, % of control":74.9,"viability (ATP), % of control":95.9,"call":"inactive"}
{"gene":"Rpl21","reagent no.":1,"GFP, % of control":125,"viability (ATP), % of control":105,"call":"active"}
{"gene":"Rpl21","reagent no.":2,"GFP, % of control":86.2,"viability (ATP), % of control":70.2,"call":"inactive"}
{"gene":"Rpl21","reagent no.":3,"GFP, % of control":76.2,"viability (ATP), % of control":79.4,"call":"inactive"}
{"gene":"Mbl2","reagent no.":1,"GFP, % of control":61.4,"viability (ATP), % of control":83.5,"call":"inactive"}
{"gene":"Mbl2","reagent no.":2,"GFP, % of control":83.7,"viability (ATP), % of control":91.7,"call":"inactive"}
{"gene":"Mbl2","reagent no.":3,"GFP, % of control":55.8,"viability (ATP), % of control":60.8,"call":"inactive"}
{"gene":"Prss42","reagent no.":1,"GFP, % of control":98.6,"viability (ATP), % of control":116,"call":"inactive"}
{"gene":"Prss42","reagent no.":2,"GFP, % of control":46.9,"viability (ATP), % of control":56,"call":"inactive"}
{"gene":"Prss42","reagent no.":3,"GFP, % of control":76.9,"viability (ATP), % of control":54.9,"call":"inactive"}
{"gene":"Dgkk","reagent no.":1,"GFP, % of control":208,"viability (ATP), % of control":64.1,"call":"active"}
{"gene":"Dgkk","reagent no.":2,"GFP, % of control":151,"viability (ATP), % of control":137,"call":"active"}
{"gene":"Dgkk","reagent no.":3,"GFP, % of control":84.8,"viability (ATP), % of control":71.2,"call":"inactive"}
{"gene":"Snapc5","reagent no.":1,"GFP, % of control":73.6,"viability (ATP), % of control":62.7,"call":"inactive"}
{"gene":"Snapc5","reagent no.":2,"GFP, % of control":66.9,"viability (ATP), % of control":69,"call":"inactive"}
{"gene":"Snapc5","reagent no.":3,"GFP, % of control":104,"viability (ATP), % of control":48.9,"call":"inactive"}

Laid out differently: results already given
| gene | reagent no. | GFP, % of control | viability (ATP), % of control | call |
| --- | --- | --- | --- | --- |
| Nfya | 1 | 54.9 | 84.8 | inactive |
| Nfya | 2 | 69.8 | 64.5 | inactive |
| Nfya | 3 | 74.7 | 111 | inactive |
| Diablo | 1 | 72.9 | 76.7 | inactive |

The results go on.
{"gene":"Pfdn6","reagent no.":1,"GFP, % of control":42.8,"viability (ATP), % of control":61.7,"call":"inactive"}
{"gene":"Pfdn6","reagent no.":2,"GFP, % of control":91.9,"viability (ATP), % of control":96.4,"call":"inactive"}
{"gene":"Pfdn6","reagent no.":3,"GFP, % of control":78,"viability (ATP), % of control":77.2,"call":"inactive"}
{"gene":"Il9r","reagent no.":1,"GFP, % of control":103,"viability (ATP), % of control":101,"call":"inactive"}
{"gene":"Il9r","reagent no.":2,"GFP, % of control":50.4,"viability (ATP), % of control":35.3,"call":"inactive"}
{"gene":"Il9r","reagent no.":3,"GFP, % of control":86.3,"viability (ATP), % of control":85.4,"call":"inactive"}
{"gene":"Tnfsf15","reagent no.":1,"GFP, % of control":47.3,"viability (ATP), % of control":22.1,"call":"inactive"}
{"gene":"Tnfsf15","reagent no.":2,"GFP, % of control":65.4,"viability (ATP), % of control":71.5,"call":"inactive"}
{"gene":"Tnfsf15","reagent no.":3,"GFP, % of control":64.3,"viability (ATP), % of control":57.1,"call":"inactive"}
{"gene":"Cilp","reagent no.":1,"GFP, % of control":138,"viability (ATP), % of control":159,"call":"active"}
{"gene":"Cilp","reagent no.":2,"GFP, % of control":93.6,"viability (ATP), % of control":64.3,"call":"inactive"}
{"gene":"Cyct","reagent no.":1,"GFP, % of control":69.3,"viability (ATP), % of control":68.3,"call":"inactive"}
{"gene":"Cyct","reagent no.":2,"GFP, % of control":122,"viability (ATP), % of control":63.6,"call":"active"}
{"gene":"Cyct","reagent no.":3,"GFP, % of control":92.9,"viability (ATP), % of control":84.3,"call":"inactive"}
